Reference: US4996223A, “New organic compounds having opioid properties” (priority 1986, dated 1991)

Test system: mice
Test: animal or person
Assay type: in vivo
Settings: Mus musculus, sc, read-out: ED50 Abdominal Constriction (Acetic acid)
Procedure: Analgesic activity was assessed using two methods in mice--the Hot Plate Test and the Abdominal Constriction Test (acetic acid). The test drug was given by subcutaneous injection and the results expressed as ED50 with 95% confidence intervals.
ED50 and 95% confidence intervals.
mg/kg, subcutaneous injection.

## CN1CC[C@]23c4c5ccc(O)c4O[C@H]2[C@@H](O)C=C[C@H]3[C@H]1C5 [morphine, reference compound]
  ED50: 0.41 mg/kg
